Results deposited as PubChem BioAssay AID1259405 (NCATS, 2018)
The deposit covers about 50,000 reagents; this is an unselected part. About 4,000 of all reagents (8%) were called active. 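Mouse siRNA library applied to hamster cells; one well for each siRNA.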 Reagents against one gene are numbered here. No sequences are given here.

Test: 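Mouse-designed siRNAs used to find CHO productivity engineering targets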 (primary screen)
Cells: Chinese hamster CHO-K1 ovary cells with stable secreted eGFP expression
Reagent: single siRNA against mouse genes, 0.8 pmol siRNA per well (2 µl of 400 nM stock)
Time to read-out: 3 days
Measurement: 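Per-well intracellular GFP measured by laser scanning cytometry, plus viability from ATP luminescence, each relative to plate median of non-targeting control wells, in %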
Reading the numbers: GFP, % of control: higher = more GFP per well, higher productivity; viability (ATP), % of control: higher = more viable cells (more ATP)
Active means: 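a knock-down is called active if GFP reaches 120% or more of non-targeting control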

Knock-down of 6330549D23Rik (RIKEN cDNA 6330549D23 gene) #1 resulted in: GFP, % of control 41.8; viability (ATP), % of control 95.6; inactive.
Knock-down of 6330549D23Rik (RIKEN cDNA 6330549D23 gene) #2 gave: GFP, % of control 94.5; viability (ATP), % of control 82.2; inactive.
Against 6330549D23Rik (RIKEN cDNA 6330549D23 gene) #3 the deposit lists GFP, % of control 106; viability (ATP), % of control 80.7; inactive.
After knock-down of Mat1a (methionine adenosyltransferase 1A) #1, the screen gave GFP, % of control 68.5; viability (ATP), % of control 81; inactive.
Mat1a (methionine adenosyltransferase 1A) #2 scored GFP, % of control 68.4; viability (ATP), % of control 136; inactive.
After knock-down of Mat1a (methionine adenosyltransferase 1A) #3, the record shows GFP, % of control 113; viability (ATP), % of control 111; inactive.
For Zfp747 (zinc finger protein 747) #1, the values are GFP, % of control 97.7; viability (ATP), % of control 88.3; inactive.
Silencing of Zfp747 (zinc finger protein 747) #2 gave: GFP, % of control 32.1; viability (ATP), % of control 78.8; inactive.
Zfp747 (zinc finger protein 747) #3 gave GFP, % of control 115; viability (ATP), % of control 82.7; inactive.
Acot9 (acyl-CoA thioesterase 9) #1 showed GFP, % of control 24; viability (ATP), % of control 43.3; inactive.
Depletion of Acot9 (acyl-CoA thioesterase 9) #2 resulted in: GFP, % of control 69.5; viability (ATP), % of control 81.1; inactive.
With knock-down of Acot9 (acyl-CoA thioesterase 9) #3, the record shows GFP, % of control 64.4; viability (ATP), % of control 72.5; inactive.
Silencing of Ccdc39 (coiled-coil domain containing 39) #1 gave: GFP, % of control 97; viability (ATP), % of control 92; inactive.
For Ccdc39 (coiled-coil domain containing 39) #2, the values are GFP, % of control 85.5; viability (ATP), % of control 82.7; inactive.
With knock-down of Ccdc39 (coiled-coil domain containing 39) #3 the results were GFP, % of control 72.7; viability (ATP), % of control 59.7; inactive.
Otx2 (orthodenticle homeobox 2) #1 showed GFP, % of control 84.6; viability (ATP), % of control 92.7; inactive.
Otx2 (orthodenticle homeobox 2) #2 gave GFP, % of control 77.5; viability (ATP), % of control 90.9; inactive.
Silencing of Slc66a2 #1 gave: GFP, % of control 50.9; viability (ATP), % of control 79.2; inactive.
With knock-down of Slc66a2 #2 the results were GFP, % of control 71.8; viability (ATP), % of control 54.8; inactive.
For Slc66a2 #3 the deposit lists GFP, % of control 44.7; viability (ATP), % of control 51.1; inactive.
Scmh1 (Scm polycomb group homolog 1) #1 gave GFP, % of control 46.3; viability (ATP), % of control 52.2; inactive.
After knock-down of Scmh1 (Scm polycomb group homolog 1) #2, the record shows GFP, % of control 102; viability (ATP), % of control 80.6; inactive.
Scmh1 (Scm polycomb group homolog 1) #3 showed GFP, % of control 41.2; viability (ATP), % of control 49.2; inactive.
Silencing of Serpina1e (serine (or cysteine) peptidase inhibitor, clade A, member 1E) #1 resulted in: GFP, % of control 38.3; viability (ATP), % of control 53; inactive.
Depletion of Serpina1e (serine (or cysteine) peptidase inhibitor, clade A, member 1E) #2 came out at: GFP, % of control 57.7; viability (ATP), % of control 61.7; inactive.
After knock-down of Serpina1e (serine (or cysteine) peptidase inhibitor, clade A, member 1E) #3, the record shows GFP, % of control 89.1; viability (ATP), % of control 113; inactive.
For Or5d20 (olfactory receptor family 5 subfamily D member 20) #1, the values are GFP, % of control 117; viability (ATP), % of control 125; inactive.
For Or5d20 (olfactory receptor family 5 subfamily D member 20) #2, the values are GFP, % of control 70.3; viability (ATP), % of control 89.1; inactive.
Against Or5d20 (olfactory receptor family 5 subfamily D member 20) #3 the deposit lists GFP, % of control 58.9; viability (ATP), % of control 61.2; inactive.
After knock-down of Clrn3 (clarin 3) #1 the results were GFP, % of control 52.7; viability (ATP), % of control 39.8; inactive.
Knock-down of Clrn3 (clarin 3) #2 resulted in: GFP, % of control 70.6; viability (ATP), % of control 88.3; inactive.
Against Clrn3 (clarin 3) #3, the entry reads GFP, % of control 263; viability (ATP), % of control 53.8; active.
Against Nox4 (NADPH oxidase 4) #1, the values are GFP, % of control 65.9; viability (ATP), % of control 77.5; inactive.
With knock-down of Nox4 (NADPH oxidase 4) #2 the results were GFP, % of control 89.9; viability (ATP), % of control 72.1; inactive.
Silencing of Nox4 (NADPH oxidase 4) #3 came out at: GFP, % of control 21.3; viability (ATP), % of control 35.6; inactive.
Silencing of Sprr4 (small proline-rich protein 4) #1 gave: GFP, % of control 51.6; viability (ATP), % of control 68.2; inactive.
After knock-down of Sprr4 (small proline-rich protein 4) #2 the results were GFP, % of control 121; viability (ATP), % of control 126; active.
Depletion of Mdh1 (malate dehydrogenase 1, NAD (soluble)) #1 gave: GFP, % of control 86.3; viability (ATP), % of control 101; inactive.
With knock-down of Mdh1 (malate dehydrogenase 1, NAD (soluble)) #2, the record shows GFP, % of control 86.2; viability (ATP), % of control 76.5; inactive.
Against Mdh1 (malate dehydrogenase 1, NAD (soluble)) #3, the values are GFP, % of control 74.2; viability (ATP), % of control 97.5; inactive.

Sorted by “GFP, % of control” (low to high): some entries from above.
Scmh1 (Scm polycomb group homolog 1) #3 → GFP, % of control: 41.2; viability (ATP), % of control: 49.2; call: inactive
Scmh1 (Scm polycomb group homolog 1) #2 → GFP, % of control: 102; viability (ATP), % of control: 80.6; call: inactive
